# Results taken from the supplement of paper PMC8728848.
# The list shows a part of the results.
# B1: YghJ (Escherichia coli), E3PJ90 (protein)
# chain: MNKKFKYKKSLLAAILSATLLAGCDGGGSGSSSDTPPVDSGTGSLPEVKPDPTPNPEPTPEPTPDPEPTPEPIPDPEPTPEPEPEPVPTKTGYLTLGGSQRVTGATCNGESSDGFTFKPGEDVTCVAGNTTIATFNTQSEAARSLRAVEKVSFSLEDAQELAGSDDKKSNAVSLVTSSNSCPANTEQVCLTFSSVIESKRFDSLYKQIDLAPEEFKKLVNEEVENNAATDKAPSTHTSPVVPVTTPGTKPDLNASFVSANAEQFYQYQPTEIILSEGRLVDSQGYGVAGVNYYTNSGRGVTGENGEFSFSWGEAISFGIDTFELGSVRGNKSTIALTELGDEVRGANIDQLIHRYSTTGQNNTRVVPDDVRKVFAEYPNVINEIINLSLSNGATLGEGEQVVNLPNEFIEQFNTGQAKEIDTAICAKTDGCNEARWFSLTTRNVNDGQIQGVINKLWGVDTNYKSVSKFHVFHDSTNFYGSTGNARGQAVVNISNAAFPILMARNDKNYWLAFGEKRAWDKNELAYITEAPSIVRPENVTRETASFNLPFISLGQVGDGKLMVIGNPHYNSILRCPNGYSWNGGVNKDGQCTLNSDPDDMKNFMENVLRYLSNDRWLPDAKSSMTVGTNLETVYFKKHGQVLGNSAPFAFHKDFTGITVKPMTSYGNLNPDEVPLLILNGFEYVTQWGSDPYSIPLRADTSKPKLTQQDVTDLIAYMNKGGSVLIMENVMSNLKEESASGFVRLLDAAGLSMALNKSVVNNDPQGYPDRVRQRRSTPIWVYERYPAVDGKPPYTIDDTTKEVIWKYQQENKPDDKPKLEVASWQEEVEGKQVTQFAFIDEADHKTPESLAAAKQRILDAFPGLEVCKDSDYHYEVNCLEYRPGTDVPVTGGMYVPQYTQLDLSADTAKAMLQAADLGTNIQRLYQHELYFRTNGRQGERLNSVDLERLYQNMSVWLWNETKYRYEEGKEDELGFKTFTEFLNCYTNNAYVGTQCSAELKKSLIDNKMIYGEESSKAGMMNPSYPLNYMEKPLTRLMLGRSWWDLNIKVDVEKYPGVVNTNGETVTQNINLYSAPTKWFAGNMQSTGLWAPAQQEVSIESKSTVPVTVTVALADDLTGREKHEVSLNRPPRVTKTYDLKANDKVTFKVPYGGLIYIKGDSKEVQSADFTFTGVVKAPFYKDGKWQHDLNSPAPLGELESASFVYTTPKKNLNASNYTGGLEQFANDLDTFASSMNDFYGRDSEDGKHRMFTYKNLPGHKHRFANDVQISIGDAHSGYPVMNSSFSPNSTTLPTTPLNDWLIWHEVGHNAAETPLTVPGATEVANNVLALYMQDRYLGKMNRVADDITVAPEYLEESNGQAWARGGAGDRLLMYAQLKEWAEKNFDIKKWYPDGTPLPEFYSEREGMKGWNLFQLMHRKARGDEVSNDKFGGKNYCAESNGNAADTLMLCASWVAQTDLSEFFKKWNPGANAYQLPGASEMSFEGGVSQSAYNTLASLDLPKPEQGPETINQVTEHKMSAE
# What was measured:
# Test in all cases: glycan array binding signal (z-score within array); higher = stronger binding
# Settings in all cases: glycan notation: IUPAC condensed, linker removed
# [1] = biological target: Gal(b1-4)GlcNAc(b1-6)GalNAc
# Summary of the method: (§1)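 The Consortium for Functional Glycomics database supplied 3228 glycan arrays, of which those lacking an available protein sequence were dropped. The binding signal, a within-array Z-score, was averaged across arrays of the same protein sequence and across linkers. Negative scores can be read as non-binding.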
# [2] = biological target: Gal(b1-4)GlcNAc(b1-6)[Gal(b1-3)]GalNAc
# Summary of the method: as §1
# [3] = biological target: Gal(b1-4)GlcNAc(b1-6)[Gal(b1-4)GlcNAc(b1-3)]GalNAc
# Summary of the method: as §1
# Gal(b1-4)GlcNAc6P = biological target: Gal(b1-4)GlcNAc6P
# Summary of the method: as §1
# Gal(b1-6)Gal = biological target: Gal(b1-6)Gal
# Summary of the method: as §1
# Gal3S(b1-3)GalNAc = biological target: Gal3S(b1-3)GalNAc
# Summary of the method: as §1
# Gal3S(b1-3)GlcNAc = biological target: Gal3S(b1-3)GlcNAc
# Summary of the method: as §1
# [4] = biological target: Gal3S(b1-3)[Fuc(a1-4)]GlcNAc
# Summary of the method: as §1
# Gal3S(b1-4)Glc = biological target: Gal3S(b1-4)Glc
# Summary of the method: as §1
# Gal3S(b1-4)Glc6S = biological target: Gal3S(b1-4)Glc6S
# Summary of the method: as §1
# Gal3S(b1-4)GlcNAc = biological target: Gal3S(b1-4)GlcNAc
# Summary of the method: as §1
# [5] = biological target: Gal3S(b1-4)[Fuc(a1-3)]Glc6S
# Summary of the method: as §1
# [6] = biological target: Gal3S(b1-4)[Fuc(a1-3)]GlcNAc
# Summary of the method: as §1
# [7] = biological target: Gal3S(b1-4)[Fuc(a1-3)]GlcNAc6S
# Summary of the method: as §1
# Gal3S4S(b1-4)GlcNAc = biological target: Gal3S4S(b1-4)GlcNAc
# Summary of the method: as §1
# Gal3S6S(b1-4)GlcNAc = biological target: Gal3S6S(b1-4)GlcNAc
# Summary of the method: as §1
# Gal3S6S(b1-4)GlcNAc6S = biological target: Gal3S6S(b1-4)GlcNAc6S
# Summary of the method: as §1
# Gal4S(b1-4)GlcNAc = biological target: Gal4S(b1-4)GlcNAc
# Summary of the method: as §1
# Gal4S6S(b1-4)GlcNAc = biological target: Gal4S6S(b1-4)GlcNAc
# Summary of the method: as §1
# Gal6P(b1-4)GlcNAc = biological target: Gal6P(b1-4)GlcNAc
# Summary of the method: as §1
# Gal6S(b1-3)GlcNAc = biological target: Gal6S(b1-3)GlcNAc
# Summary of the method: as §1
# Gal6S(b1-3)GlcNAc6S = biological target: Gal6S(b1-3)GlcNAc6S
# Summary of the method: as §1
# Gal6S(b1-4)Glc = biological target: Gal6S(b1-4)Glc
# Summary of the method: as §1
binder,measurement,setting,value
B1,glycan array binding signal (z-score),[1],-0.103
same,glycan array binding signal (z-score),[2],0.315
same,glycan array binding signal (z-score),[3],-0.57
same,glycan array binding signal (z-score),Gal(b1-4)GlcNAc6P,-0.299
same,glycan array binding signal (z-score),Gal(b1-6)Gal,-1.06
same,glycan array binding signal (z-score),Gal3S(b1-3)GalNAc,-0.856
same,glycan array binding signal (z-score),Gal3S(b1-3)GlcNAc,0.995
same,glycan array binding signal (z-score),[4],-0.314
same,glycan array binding signal (z-score),Gal3S(b1-4)Glc,0.664
same,glycan array binding signal (z-score),Gal3S(b1-4)Glc6S,-0.371
same,glycan array binding signal (z-score),Gal3S(b1-4)GlcNAc,-0.894
same,glycan array binding signal (z-score),[5],0.345
same,glycan array binding signal (z-score),[6],-0.523
same,glycan array binding signal (z-score),[7],0.478
same,glycan array binding signal (z-score),Gal3S4S(b1-4)GlcNAc,-0.484
same,glycan array binding signal (z-score),Gal3S6S(b1-4)GlcNAc,-0.36
same,glycan array binding signal (z-score),Gal3S6S(b1-4)GlcNAc6S,1.19
same,glycan array binding signal (z-score),Gal4S(b1-4)GlcNAc,1.09
same,glycan array binding signal (z-score),Gal4S6S(b1-4)GlcNAc,-1.43
same,glycan array binding signal (z-score),Gal6P(b1-4)GlcNAc,0.52
same,glycan array binding signal (z-score),Gal6S(b1-3)GlcNAc,0.437
same,glycan array binding signal (z-score),Gal6S(b1-3)GlcNAc6S,2.04
same,glycan array binding signal (z-score),Gal6S(b1-4)Glc,0.441

# Random excerpt: two entries already listed.
binder,measurement,setting,value
B1,glycan array binding signal (z-score),[3],-0.57
same,glycan array binding signal (z-score),[2],0.315
